Values from PubChem BioAssay AID1508588 (Peter MacCallum Cancer Centre, 2020).

Aim: 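Which gene losses make BRAF-mutant melanoma cells more responsive to vemurafenib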 (primary screen)
Cells: human WM266.4 melanoma cells (BRAF V600 mutant)
Reagents: siRNA pool against human genes, 40 nM
Timing: 96 h from transfection to read-out
Challenge: vemurafenib 300 nM (about IC25), added 48 h after transfection, for 48 h; comparison arm got DMSO vehicle only
Measurement: 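Cell gain (DAPI nuclei at end minus before drug, mean of two replicates) and medium lactate by absorbance per cell, both as ratio to non-targeting siRNA, also grouped into fold-change classes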
Reading the numbers: cell gain with vemurafenib: higher = more cell gain than with non-targeting siRNA; lactate per cell with vemurafenib: higher = more lactate made per cell
Rule for the call: 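a knock-down counts as enhancing when its fold-change classes with vehicle and with vemurafenib, taken together, show a stronger drug effect on cell gain or lactate per cell; exact class pairs not stated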
Calls: active = enhances vemurafenib effect; inactive = no enhancement seen
This is one part, drawn at random, of about 18,000 reagents tested. 790 of all reagents (4.4%) count as active. 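Calls rest on a combination of fold-change classes in drug and vehicle arms, not all shown here.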 Entries without a mark were called inactive.

The first 7 records as a preview:
Target gene,cell gain with vemurafenib,lactate per cell with vemurafenib
SEC22B,1.09,0.96
MED24,0.48,1.33
G6PC3,0.48,0.62
ZFHX2,0.7 (active),0.44
PMP2,0.68,0.3
FRS2,0.74,0.66
RAPGEF5,0.59,0.85

The listing, repeating the preview:
Target gene,cell gain with vemurafenib,lactate per cell with vemurafenib
SEC22B,1.09,0.96
MED24,0.48,1.33
G6PC3,0.48,0.62
ZFHX2,0.7 (active),0.44
PMP2,0.68,0.3
FRS2,0.74,0.66
RAPGEF5,0.59,0.85
OR3A3,0.74,1.23
OR2A14,0.1,0.68
RDH12,0.85,0.66
FSD1L,0.02,2.79
FBXO43,0.79,0.85
INKA2,0.31,1.31
HMGCS2,0.82,1.27
ESCO1,0.31,1.79
LDLRAD1,0.65,1.23
RBM24,0.34,1.03
ERO1B,0.71,1.17
YTHDF2,0.41 (active),0.44
GALT,0.8,0.59
ZNF697,0.13,0.9
HBD,0.74,0.85
RAB27A,1.13,0.85
RDH16,0.79,0.84
JAG2,0.13,1.52
RAB5IF,0,0
TRIR,0.24,2.29
ENTPD1,0.25,0.9
GDA,0.61,0.82
PAFAH1B1,0.61,0.67
DIXDC1,0.17,1.4
DNAJC1,0.45,0.92
ZC3H7A,0.6,0.59
CEP104,0.6,1.25
PLVAP,0.45,1.59
CFAP20DC,0.78,1.38
SERTAD2,0.75,0.54
MON2,0.98,0.78
ZMAT2,0.35,1.5
CUX1,1.02,0.56
CA7,0.63,0.44
BAIAP2L1,0.36,0.48
AGBL4,0.8,0.54
ACTN4,0.47,0.95
SCGB3A1,0.87,0.84
COASY,0.31,1.11
TUFM,0.48,1.86
TMC2,0.26,1.1
RIN2,0.84,0.58
TIFA,0.22,0.73
SIRAL1,0.68,0.3
SPPL2B,1.01,0.58
SRD5A3,0.79,0.58
ARAP1,0.2,3.17
RAP2A,0.61,1.35
IFNA16,0.41,0.76
ZNF566,0.92,0.76
